# Assay: in vitro
# Conditions: human, microsomes, CLint(liver)
# Procedure: Microsome stability was determined in human, rat, and mouse, liver microsomes. Compound at 3 μM final concentration along with 0.5 mg/mL microsome protein and 1 mM NADPH was incubated for 0, 5, 15, 30 and 60 min. As a negative control, test compound was incubated with microsomes in the absence of NADPH. Samples were quenched with methanol and centrifuged for 25 min at 2500 rpm to precipitate proteins. Supernatants were analyzed (N=3) by LC-MS/MS. The In peak area ratio (compound peak area/internal standard peak area) was plotted against time and the gradient of the line determined the elimination rate constant [k=(−1)(slope)].
# R^2 is the correlation coefficient of the linear regression for the determination of kinetic constant. T1/2 is the half life and CLint (mic) is the intrinsic clearance. CLint(liver)=CLint (mic)*mg microsomal protein/g liver weight*g liver weight/kg body weight. Liver weight/kg body weight is 20 g/kg for human.
structure (smiles),measurement,value
CCCNCC(O)COc1ccccc1C(=O)CCc1ccccc1 (stereo not shown) [Propafenone],CLint scaled at 3 μM,143 mL/min/kg
